Data published in publication PMC6723352, “Exploring Structure-Activity Relationship in Tacrine-Squaramide Derivatives as Potent Cholinesterase Inhibitors” (Biomolecules, 2019).

Settings: pig, PAMPA, pH 7.4
Excerpt: An important feature for drugs targeting the brain is their ability to cross the BBB. The parallel artificial membrane permeability assay (PAMPA) is a high-throughput screening tool applicable for prediction of passive transport across BBB [57]. […] These include mainly (i) the different composition of the human phospholipid bilayer may cause deviation in predicted permeability, (ii) omitting the absorption of compounds that are actively transported by influx transporters and pumped-out by various efflux mechanisms with the glycoprotein P at the forefront or (iii) transport through the paracellular route which is mostly exploited by small hydrophobic molecules. […]
PAMPA (the parallel artificial membrane permeability assay) is a high-throughput screening tool applicable for prediction of the passive transport of potential drugs across the blood-brain barrier (BBB). […] The concentration of the tested compound in both donor and the acceptor wells were assessed after 3, 4, 5 and 6 h of incubation in quadruplicate using the UV plate reader Synergy HT (Biotek, USA) at the maximum absorption wavelength of each compound (n = 3). Besides that, the solution of theoretical compound concentration, simulating the equilibrium state, established if the membrane was ideally permeable was prepared and assessed as well.

## COc1cc2c(cc1OC)C(=O)C(CC1CCN(Cc3ccccc3)CC1)C2 (stereo not shown) [Donepezil, donepezil, reference compound]
  Pe: 21 ×10⁻⁶ cm/s
